The subject of data set [1] is A431 cells. Description: Cell pellet FLT studies. It counts as cell-based. The protocol:
(§1) Reagents. […] All other chemicals used were of reagent grade. […] Then the mixture was purified with a Sephadex G50 column (PD-10; GE Healthcare). The protein concentrations were determined with Coomassie Plus protein assay kit (Pierce Biotechnology) by measuring light absorption at 595 nm (8453 Value System; Agilent Technologies). […] The number of IR700 per antibody was approximately 4 for the 1:4.5 reaction conditions. The addition of 0.4% SDS to the sample dissociated the fluorophores from each other, effectively causing dequenching. Quenching efficiency (QE) for a particular conjugation is defined as the fluorescence intensity with SDS divided by fluorescence intensity without SDS. […] Pan-1R700 was kept at 4° C. in the refrigerator as a stock solution. Fluorescence lifetime measurements. FLT experiments were performed with the eXplore OptixTm-MX2 system (ART Advanced Research Technologies, Inc.) (Hutchinson et al., Biophys J 68:1574-82, 1995; Ma et al., Appl Opt 46:1650-7, 2007). A fixed pulsed laser diode was used as an excitation source at a wavelength of 670 nm. Region of interest (ROI) measurements with a spot size of 1.5 mm were selected at the image plane. […] Lifetime analysis was performed by using the ART OptiView (ART Advanced Research Technologies, Inc.). Lifetime values and lifetime mapping were calculated to fit fluorescence temporal point-spread functions (TPSFs) as single-exponential models with the Fit TPSF tool. Photoimmunotherapy for in vitro and in vivo models. PIT was performed with a red light-emitting diode (LED) light at 680 to 700 nm wavelength (Tech-LED, Marubeni America Co.) (Mitsunaga et al., Bioconjug Chem. 23:604-9, 2012). Power densities were measured with an optical power meter (PM 100, Thorlabs). Determination of FLT for Pan-IR700. Samples of Pan-IR700 at concentrations of 2.5, 5, 20, 40 pg/mL were prepared by dilution with PBS. The fluorescence intensities and lifetimes of each sample were determined using the Optix MX2 system at room temperature within a 1.7 ml centrifuge tube. To investigate the effect of PIT using Pan-1R700, the FLT of each sample at the concentration of 50 pg/mL was measured after irradiating the samples at a PIT dose of 0, 2, 4, 8, 15, 30 J/cm2. Cell line. […] The cell line was grown in RPMI 1640 (Life Technologies) containing 10% fetal bovine serum (Life Technologies), 0.03% L-glutamine, 100 units/mL penicillin, and 100 μg/mL streptomycin in 5% CO2 at 37° C. Cell pellet FLT studies A431. Cells were plated on […] cell culture flasks and incubated until confluent. Then Pan-IR700 conjugate was added to the media (1 pg/mL), and cells were incubated for 24 h at 37° C. Upon completion of incubation, cells were removed from the flasks, and centrifuged to obtain pellets. The resulting cell pellets were washed with PBS×3 and placed in 1.7 mL centrifuge tubes. The fluorescence intensities and lifetimes of each sample were then obtained. To investigate the effect of cellular internalization with Pan-IR700 conjugates, A431 cells were plated on a 75 mm^2 flask and were incubated with Pan-1R700 for 1, 2, 4, 6, 15 and 24 hours. After removing the flasks and obtaining A431 cell pellets, FLT measurements of the A431 pellet was acquired. After the A431 cell pellets were incubated overnight with Pan-R700, cell pellets were irradiated at doses of 0, 2, 4, 8, 15, 30 J/cm2. After that, these pellets were gently washed with PBS×1 and fluorescence intensity and lifetime images were obtained. To detect the antigen specific localization of IR700 and to confirm the morphological changes of A431 cells before and after PIT, fluorescence microscopy was performed using Olympus BX61 microscope (Olympus America) equipped with the following filters: a 590-650 nm excitation filter, a 665-740 nm band pass emission filter. Transmitted light differential interference contrast images (DIC) were also acquired. A431 cells were plated on a cover glass-bottomed culture well and incubated for 24 hours. […]

For the next data set, the system named is A431 tumors. As to the kind of experiment: In vivo FLT imaging after PIT. The arrangement: species or system mice. The procedure: as §1, with “To investigate the effect of cellular internalization with Pan-IR700 conjugates, A431 cells were plated on a 75 mm^2 flask and were incubated with Pan-1R700 for 1, 2, 4, 6, 15 and 24 hours. After removing the flasks and obtaining A431 cell pellets, FLT measurements of the A431 pellet was acquired. After the A431 cell pellets were incubated overnight with Pan-R700, cell pellets were irradiated at doses of 0, 2, 4, 8, 15, 30 J/cm2.” left out, “filter.” for “filter. Transmitted light differential interference contrast images (DIC) were also acquired. A431 cells were plated on a cover glass-bottomed culture well and incubated for 24 hours.”

For data set [2], the system named is A431 cells. As to the kind of experiment: Fluorescence microscopy of Pan-IR700 in A431 cells. In kind it is cell-based. The procedure: EGFR-expressing A431 cells were used as the target HER1+ cells. […] Cells were grown in RPMI 1640 supplemented with 10% fetal bovine serum and 1% penicillin/streptomycin in tissue culture flasks in a humidified incubator at 37° C. in an atmosphere of 95% air and 5% carbon dioxide. A431 or Balb/3T3/DsRed cells were seeded on cover glass-bottomed dishes and incubated for 24 hours. Pan-IR700 was added to the culture medium at 10 μg/mL and incubated either for 1 hour on ice or 6 hours at 37° C., then cells were washed with PBS. Culture medium was replaced with phenol red-free medium after washing with phosphate buffered saline (PBS).
Fluorescence microscopy was performed as described in Example 2 to detect the antigen-specific localization of IR700.
Reagents. […] All other chemicals used were of reagent grade. […] Then the mixture was purified with a Sephadex G50 column (PD-10; GE Healthcare). The protein concentrations were determined with Coomassie Plus protein assay kit (Pierce Biotechnology) by measuring light absorption at 595 nm (8453 Value System; Agilent Technologies). […] The number of IR700 per antibody was approximately 4 for the 1:4.5 reaction conditions. […] Quenching efficiency (QE) for a particular conjugation is defined as the fluorescence intensity with SDS divided by fluorescence intensity without SDS. […] Fluorescence lifetime measurements. […] Lifetime values and lifetime mapping were calculated to fit fluorescence temporal point-spread functions (TPSFs) as single-exponential models with the Fit TPSF tool. […] Power densities were measured with an optical power meter (PM 100, Thorlabs). […] The fluorescence intensities and lifetimes of each sample were determined using the Optix MX2 system at room temperature within a 1.7 ml centrifuge tube. To investigate the effect of PIT using Pan-1R700, the FLT of each sample at the concentration of 50 pg/mL was measured after irradiating the samples at a PIT dose of 0, 2, 4, 8, 15, 30 J/cm2. […] The fluorescence intensities and lifetimes of each sample were then obtained. […]

Data set [3] in a line: Quenching efficiency and fluorescence lifetime (FLT) of Pan-IR700 in solution. In kind it is physicochemical.
Another data set relates to 3T3/HER2+ cells. Description: Fluorescence microscopy, subcellular localization of IR700. It counts as cell-based. The following applies: IR700 dye alone, 200 nM.

“And” between values parts separate entries of the source, which are not always exact repeats. Identical values can stand only once. Where only a bound is given, the exact number is not on record here.

For “Pan-IR700: Panitumumab (anti-human EGFR IgG2 MAb) conjugated to IR700; about 3 to 4 IR700 per antibody”, the “FLT of cell pellet” value in the data set on A431 cells [1] (1 hour incubation) was 2.98 ns; in the data set with A431 cells [1] (2 hours incubation), 3.05 ns; with A431 cells [1] (4 hours incubation), 3.13 ns; with A431 cells [1] (6 hours incubation), 3.15 ns; in the data set on A431 cells [1] (15 hours incubation), 3.36 ns; in the data set on A431 cells [1] (24 hours incubation), 3.41 ns and 3.42 ns. Besides, the “FLT of cell pellet after PIT” value in the data set with A431 cells [1] (24 hours incubation, 0 J/cm2) was 3.28 ns; with A431 cells [1] (24 hours incubation, 8 J/cm2), 3.09 ns; in the data set on A431 cells [1] (24 hours incubation, 15 J/cm2) it was 2.94 ns; in the data set with A431 cells [1] (24 hours incubation, 30 J/cm2) it was 2.85 ns. Also, in the data set on A431 tumors (10 J/cm^2), the “FLT shortening immediately after PIT” value was “no significant shortening of FLT”. The “IR700 FLT 6 hours after PIT” value with A431 tumors (10 J/cm^2) is on record as “did not show this transiently prolonged FLT”; in the data set with A431 tumors (30 and 50 J/cm2), “Transient prolongation”. Besides, in the data set with A431 tumors (1 day after administration of 100 pg, n=40), the “average FLT of tumors” value was 3.27+/−0.46 ns. In the data set on A431 tumors (mouse, in vivo), the “threshold NIR dose for immediate shortening of FLT” value was not below 30 J/cm^2. Further, the subcellular localization result with A431 cells [2] (10 μg/mL, 1 hour on ice) was “detected on the cell surface”; in the data set on A431 cells [2] (10 μg/mL, 6 hours at 37° C.), “mainly localized to the lysosome”; in the data set with A431 cells [2] (24 hours after incubation) it was “seen on the cell membrane and within endolysosomes”. In addition, the FLT is recorded as 3.62 ns in data set [3] (2.5 pg/mL), 3.58 ns in data set [3] (5 pg/mL), 3.44 ns in data set [3] (20 pg/mL) and 3.60 ns in data set [3] (40 pg/mL). For the same substance, in data set [3] (50 pg/mL, 0, 2, 4, 8, 15, 30 J/cm2), the “FLT after LED irradiation of the solution” value is on record as “approximately 3.44+/−0.058 ns”. Also, in data set [3] (2.5 to 40 pg/mL in PBS), the “FLT, over all concentrations” value is reported as 3.56+/−0.081 ns.
For IRDye® 700DX [IR700], the “incorporation of free dye into cells” value is on record as “did not incorporate into the cells” in the data set with 3T3/HER2+ cells and “did not incorporate into 3T3/HER2 cells” in the data set with 3T3/HER2+ cells (listed as Free IR700 dye).

The values above are taken from patent US12616751B2, “Photosensitizing antibody-fluorophore conjugates” (The USA, as represented by the Secretary, Department of …, priority 2010, dated 2026).
